Measurements reported in article PMC7482824.
Results are given in words; binding and its absence hold for the method and conditions named. Binding seen in cells or lysates may run through a third protein. Some results given as binding are weak or reduced against the parent protein; the word gives no strength. Where a sequence is shown, tags or fusion partners need not be part of it.

Sequences of proteins named here, by UniProt entry; tags and fusion partners are left off. Residues count along the entry.
UniProt P19438, residues 30-455: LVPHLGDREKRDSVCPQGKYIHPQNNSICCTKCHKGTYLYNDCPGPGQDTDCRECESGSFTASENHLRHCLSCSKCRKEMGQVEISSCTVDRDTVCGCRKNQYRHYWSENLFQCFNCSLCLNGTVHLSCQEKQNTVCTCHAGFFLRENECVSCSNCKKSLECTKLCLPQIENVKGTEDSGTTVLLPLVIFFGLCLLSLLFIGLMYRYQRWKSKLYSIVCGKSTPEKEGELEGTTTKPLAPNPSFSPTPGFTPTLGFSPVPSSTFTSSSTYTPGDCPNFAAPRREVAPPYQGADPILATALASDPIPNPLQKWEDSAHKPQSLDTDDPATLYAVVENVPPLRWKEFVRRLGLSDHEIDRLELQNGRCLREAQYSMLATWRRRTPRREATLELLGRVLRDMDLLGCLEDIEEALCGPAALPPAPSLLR

Biological target: TNFR1 in the co-IP from transfected Huh7 cells (Figure 1E) (UniProt P19438)
Experiment: co-IP; Huh7 cells 48 h after transfection with the indicated plasmids; IP with IgG, anti-Flag or anti-TNFR1; western blot

B1: Flag-HRG (protein, UniProt P04196 19-525)
chain: VSPTDCSAVEPEAEKALDLINKRRRDGYLFQLLRIADAHLDRVENTTVYYLVLDVQESDCSVLSRKYWNDCEPPDSRRPSEIVIGQCKVIATRHSHESQDLRVIDFNCTTSSVSSALANTKDSPVLIDFFEDTERYRKQANKALEKYKEENDDFASFRVDRIERVARVRGGEGTGYFVDFSVRNCPRHHFPRHPNVFGFCRADLFYDVEALDLESPKNLVINCEVFDPQEHENINGVPPHLGHPFHWGGHERSSTTKPPFKPHGSRDHHHPHKPHEHGPPPPPDERDHSHGPPLPQGPPPLLPMSCSSCQHATFGTNGAQRHSHNNNSSDLHPHKHHSHEQHPHGHHPHAHHPHEHDTHRQHPHGHHPHGHHPHGHHPHGHHPHGHHPHCHDFQDYGPCDPPPHNQGHCCHGHGPPPGHLRRRGPGKGPRPFHCRQIGSVYRLPPLRKGEVLPLPEANFPSFPLPHHKHPLKPDNQPFPQSVSESCPGKFKSGFPQVSMFFTHTFPK
binding: binds
